Here are results for one substance from doi:10.1101/2023.04.13.536796.

Chains of the proteins cited; added tags and fusions are not shown. Residues count along the entry.
UniProt Q9UBV2, residues 22-794: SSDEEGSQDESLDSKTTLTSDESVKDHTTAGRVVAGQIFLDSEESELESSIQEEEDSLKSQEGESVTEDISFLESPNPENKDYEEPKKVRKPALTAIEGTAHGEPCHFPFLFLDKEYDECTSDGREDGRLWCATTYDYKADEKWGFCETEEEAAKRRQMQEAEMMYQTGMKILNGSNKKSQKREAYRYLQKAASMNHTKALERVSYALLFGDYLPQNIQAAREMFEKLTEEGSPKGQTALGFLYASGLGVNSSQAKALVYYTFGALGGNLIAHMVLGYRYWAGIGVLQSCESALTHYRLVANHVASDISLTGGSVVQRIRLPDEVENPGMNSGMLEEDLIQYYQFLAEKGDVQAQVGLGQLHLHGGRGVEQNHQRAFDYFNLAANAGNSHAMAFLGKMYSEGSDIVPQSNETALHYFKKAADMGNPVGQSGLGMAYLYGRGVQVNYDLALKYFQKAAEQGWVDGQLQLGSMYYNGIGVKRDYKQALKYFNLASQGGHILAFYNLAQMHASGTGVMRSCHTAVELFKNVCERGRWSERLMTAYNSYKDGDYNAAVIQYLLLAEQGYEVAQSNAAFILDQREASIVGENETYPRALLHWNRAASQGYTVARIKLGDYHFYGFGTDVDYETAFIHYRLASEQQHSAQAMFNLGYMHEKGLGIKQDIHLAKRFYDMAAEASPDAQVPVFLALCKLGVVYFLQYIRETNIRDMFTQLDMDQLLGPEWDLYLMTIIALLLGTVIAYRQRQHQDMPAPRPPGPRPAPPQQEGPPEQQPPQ

These are yes or no findings as the source states them, for the method shown. Binding seen in cells or lysates may run through a third protein. These calls come from enrichment with a bait or labelling near it, and not all partners need be listed.

For this test, the target named is SEL1L (suppressor of lin-12-like), endogenous (human (endogenous in HEK293T)) (UniProt Q9UBV2). The experiment in a line: affinity purification with mass spectrometry.

Take “VCP (Valosin containing protein), endogenous (from UniProt P55072 1-806) (enzyme)”: the binding result is “binds”.
